For at least one compound, name, drawing or mass did not settle the structure. Peptide text beside a SMILES is read from it.
Target: recombinant human cyclophilin 18 (Homo sapiens, UniProt P62937)
Test: Test for inhibition of cyclophilin (chymotrypsin-coupled hydrolysis of Succ-Ala-Phe-Pro-Phe-4-nitroanilide)
Assay type: biochemical
Settings: recombinant human cyclophilin 18, 10 °C, HEPES buffer, 5 minutes preincubation, substrate 50 μM
Protocol: The test described by G. Fischer et al., Biomed. Biochim. Acta, Vol. 43, 1101-1111 (1984) was used. Specifically, 5 μL of a 1 μM solution of recombinant human cyclophilin 18 was dissolved, at 10,0±0.3° C. in 1250 μL HEPES buffer; α-chymotrypsin was added to give a final concentration of 30 μM. […] After 5 minutes preincubation, Succ-Ala-Phe-Pro-Phe-4-nitroanilide (SEQ ID No. 1) was added to give a final concentration of 50 μM. The hydrolysis of the substrate was measured spectrophotometrically at […].

Sequences of proteins named here, by UniProt entry; tags and fusion partners are left off.
UniProt P62937, whole entry: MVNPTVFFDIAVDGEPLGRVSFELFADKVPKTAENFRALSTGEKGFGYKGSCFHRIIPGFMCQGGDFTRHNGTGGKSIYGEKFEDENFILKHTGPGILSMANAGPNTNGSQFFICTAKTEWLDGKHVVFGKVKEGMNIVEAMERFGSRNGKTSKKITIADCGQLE

| SMILES | IC50 [nM] |
| --- | --- |
| C/C=C/C[C@@H](C)[C@@H](O)[C@H]1C(=O)N[C@@H](CC)C(=O)N(C)C(OC)C(=O)N(C)[C@@H](CC(C)C)C(=O)N[C@@H](C(C)C)C(=O)N(C)[C@@H](CC(C)C)C(=O)N[C@@H](C)C(=O)N[C@H](C)C(=O)N(C)[C@@H](CC(C)C)C(=O)N(C)[C@@H](CC(C)C)C(=O)N(C)[C@@H](C(C)C)C(=O)N1C (stereo partly drawn) [Example 14, 3-Methoxycyclosporin] | 11.6 ± 1.59 |
| C/C=C/C[C@@H](C)[C@@H](O)[C@H]1C(=O)N[C@@H](CC)C(=O)N(C)C(OCC)C(=O)N(C)[C@@H](CC(C)C)C(=O)N[C@@H](C(C)C)C(=O)N(C)[C@@H](CC(C)C)C(=O)N[C@@H](C)C(=O)N[C@H](C)C(=O)N(C)[C@@H](CC(C)C)C(=O)N(C)[C@@H](CC(C)C)C(=O)N(C)[C@@H](C(C)C)C(=O)N1C (stereo partly drawn) [Example 15, 3-Ethoxycyclosporin] (HELM PEPTIDE1{[C/C=C/C[C@@H](C)[C@@H](O)[C@@H](C(=O)[*:2])N(C)[*:1]].[Abu].[CCOC(C(=O)[*:2])N(C)[*:1]].[meL].V.[meL].A.[dA].[meL].[meL].[meV]}$PEPTIDE1,PEPTIDE1,1:R1-11:R2$$$V2.0) | 11.1 ± 1.03 |
| C/C=C/C[C@@H](C)[C@@H](O)[C@H]1C(=O)N[C@@H](CC)C(=O)N(C)C(OC(C)C)C(=O)N(C)[C@@H](CC(C)C)C(=O)N[C@@H](C(C)C)C(=O)N(C)[C@@H](CC(C)C)C(=O)N[C@@H](C)C(=O)N[C@H](C)C(=O)N(C)[C@@H](CC(C)C)C(=O)N(C)[C@@H](CC(C)C)C(=O)N(C)[C@@H](C(C)C)C(=O)N1C (stereo partly drawn) [Example 16, 3-Isopropyloxycyclosporin] (HELM PEPTIDE1{[C/C=C/C[C@@H](C)[C@@H](O)[C@@H](C(=O)[*:2])N(C)[*:1]].[Abu].[CC(C)OC(C(=O)[*:2])N(C)[*:1]].[meL].V.[meL].A.[dA].[meL].[meL].[meV]}$PEPTIDE1,PEPTIDE1,1:R1-11:R2$$$V2.0) | 20.4 ± 1.26 |
